Measurements reported in PubChem BioAssay AID1224830 (NIAID, 2016)

- Screen: 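Host factors that control LPS-induced TNF expression in human macrophages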 (primary screen)
- System: human THP-1 monocytic leukaemia cells, TNF dual-luciferase reporter clone, PMA-differentiated to macrophage-like cells
- Knock-down reagent: siRNA pool against human genes, 50 nM
- Time to read-out: LPS for 4 h, given about 3 days after siRNA transfection
- Conditions: bacterial LPS (TLR4 ligand), 10 ng/ml
- Measurement: 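TNF firefly reporter luminescence divided by renilla, normalised to the plate median, then turned into a robust z-score for each replicate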
- Reading the numbers: TNF reporter robust z-score: higher = stronger TNF reporter response to LPS
- Hit rule: 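Each well counts as active if its z-score is over 2.8 or under -1.5; controls are left without a call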
Here is a random part of about 18,000 reagents tested. About 2,900 of them (16%) count as active. 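Calls are made per well; low scores hint the gene aids the LPS response, high scores that it dampens it.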 Reagents against one gene are numbered here. Repeated entries: four replicate wells of each siRNA pool.

gene | pool no. | TNF reporter robust z-score | activity call
CYTH4 (cytohesin 4) | 1 | -0.52 | inactive
CYTH4 (cytohesin 4) | 1 | 0.59 | inactive
CYTH4 (cytohesin 4) | 1 | -1.15 | inactive
CYTH4 (cytohesin 4) | 1 | -0.19 | inactive
RAX2 (retina and anterior neural fold homeobox 2) | 1 | 0.66 | inactive
RAX2 (retina and anterior neural fold homeobox 2) | 1 | 2.83 | active
RAX2 (retina and anterior neural fold homeobox 2) | 1 | 1.45 | inactive
RAX2 (retina and anterior neural fold homeobox 2) | 1 | 1.25 | inactive
RNASE8 (ribonuclease A family member 8) | 1 | -0.34 | inactive
RNASE8 (ribonuclease A family member 8) | 1 | -0.87 | inactive
RNASE8 (ribonuclease A family member 8) | 1 | 0.12 | inactive
RNASE8 (ribonuclease A family member 8) | 1 | -0.9 | inactive
LINC01559 (long independently transcribed non-coding RNA 1559) | 1 | 0.21 | inactive
LINC01559 (long independently transcribed non-coding RNA 1559) | 1 | 0.69 | inactive
LINC01559 (long independently transcribed non-coding RNA 1559) | 1 | -0.43 | inactive
LINC01559 (long independently transcribed non-coding RNA 1559) | 1 | 1.13 | inactive
IQCE (IQ motif containing E) | 1 | 0.98 | inactive
IQCE (IQ motif containing E) | 1 | 1.67 | inactive
IQCE (IQ motif containing E) | 1 | 1.41 | inactive
IQCE (IQ motif containing E) | 1 | 1.49 | inactive
AVL9 (AVL9 cell migration associated) | 1 | -0.46 | inactive
AVL9 (AVL9 cell migration associated) | 1 | 1.77 | inactive
AVL9 (AVL9 cell migration associated) | 1 | 0.78 | inactive
AVL9 (AVL9 cell migration associated) | 1 | 1.62 | inactive
REN (renin) | 1 | 1.78 | inactive
REN (renin) | 1 | 0.77 | inactive
REN (renin) | 1 | -0.35 | inactive
REN (renin) | 1 | -0.4 | inactive
IFI44 (interferon induced protein 44) | 1 | 0.15 | inactive
IFI44 (interferon induced protein 44) | 1 | 0.23 | inactive
IFI44 (interferon induced protein 44) | 1 | 1.36 | inactive
IFI44 (interferon induced protein 44) | 1 | 0.57 | inactive
TEFM (transcription elongation factor, mitochondrial) | 1 | -1.22 | inactive
TEFM (transcription elongation factor, mitochondrial) | 1 | -0.2 | inactive
TEFM (transcription elongation factor, mitochondrial) | 1 | 0 | inactive
TEFM (transcription elongation factor, mitochondrial) | 1 | -0.22 | inactive
SDC1 (syndecan 1) | 1 | 0.58 | inactive
SDC1 (syndecan 1) | 1 | 1.74 | inactive
SDC1 (syndecan 1) | 1 | 2.37 | inactive
SDC1 (syndecan 1) | 1 | 2.03 | inactive
IL17C (interleukin 17C) | 1 | -0.91 | inactive
IL17C (interleukin 17C) | 1 | -0.4 | inactive
IL17C (interleukin 17C) | 1 | 0.47 | inactive
IL17C (interleukin 17C) | 1 | 1.33 | inactive
PCDH18 (protocadherin 18) | 1 | 1.27 | inactive
PCDH18 (protocadherin 18) | 1 | 0.02 | inactive
PCDH18 (protocadherin 18) | 1 | -0.78 | inactive
PCDH18 (protocadherin 18) | 1 | -0.49 | inactive
HEY2 | 1 | -0.6 | inactive
HEY2 | 1 | -0.63 | inactive
HEY2 | 1 | -0.53 | inactive
HEY2 | 1 | -0.71 | inactive
REX1BD (required for excision 1-B domain containing) | 1 | -0.85 | inactive
REX1BD (required for excision 1-B domain containing) | 1 | 0.79 | inactive
REX1BD (required for excision 1-B domain containing) | 1 | 0.37 | inactive
REX1BD (required for excision 1-B domain containing) | 1 | -0.22 | inactive
LDHC (lactate dehydrogenase C) | 1 | 0.44 | inactive
LDHC (lactate dehydrogenase C) | 1 | 0.71 | inactive
LDHC (lactate dehydrogenase C) | 1 | 0.61 | inactive
LDHC (lactate dehydrogenase C) | 1 | 1.26 | inactive
LRRIQ1 (leucine rich repeats and IQ motif containing 1) | 1 | 0 | inactive
LRRIQ1 (leucine rich repeats and IQ motif containing 1) | 1 | 0.24 | inactive
LRRIQ1 (leucine rich repeats and IQ motif containing 1) | 1 | -1.26 | inactive
LRRIQ1 (leucine rich repeats and IQ motif containing 1) | 1 | -1.4 | inactive
ALG12 (ALG12 alpha-1,6-mannosyltransferase) | 1 | 1.57 | inactive
ALG12 (ALG12 alpha-1,6-mannosyltransferase) | 1 | 0.64 | inactive
ALG12 (ALG12 alpha-1,6-mannosyltransferase) | 1 | -0.04 | inactive
ALG12 (ALG12 alpha-1,6-mannosyltransferase) | 1 | 1.73 | inactive
CNPPD1 (cyclin Pas1/PHO80 domain containing 1) | 1 | -0.55 | inactive
CNPPD1 (cyclin Pas1/PHO80 domain containing 1) | 1 | 0.27 | inactive
CNPPD1 (cyclin Pas1/PHO80 domain containing 1) | 1 | -0.84 | inactive
CNPPD1 (cyclin Pas1/PHO80 domain containing 1) | 1 | 0.62 | inactive
TSPAN5 (tetraspanin 5) | 1 | -0.79 | inactive
TSPAN5 (tetraspanin 5) | 1 | -0.34 | inactive
TSPAN5 (tetraspanin 5) | 1 | -1.39 | inactive
TSPAN5 (tetraspanin 5) | 1 | -0.49 | inactive
KCNH1 (potassium voltage-gated channel subfamily H member 1) | 1 | -0.96 | inactive
KCNH1 (potassium voltage-gated channel subfamily H member 1) | 1 | 0.85 | inactive
KCNH1 (potassium voltage-gated channel subfamily H member 1) | 1 | -0.31 | inactive
KCNH1 (potassium voltage-gated channel subfamily H member 1) | 1 | 0.02 | inactive
TET1 (tet methylcytosine dioxygenase 1) | 1 | 0.69 | inactive
TET1 (tet methylcytosine dioxygenase 1) | 1 | 0.96 | inactive
TET1 (tet methylcytosine dioxygenase 1) | 1 | 0.7 | inactive
TET1 (tet methylcytosine dioxygenase 1) | 1 | 0.67 | inactive
PCDH17 (protocadherin 17) | 1 | -0.71 | inactive
PCDH17 (protocadherin 17) | 1 | 2.53 | inactive
PCDH17 (protocadherin 17) | 1 | 2.18 | inactive
PCDH17 (protocadherin 17) | 1 | 1.8 | inactive
ETS1 (ETS proto-oncogene 1, transcription factor) | 1 | -0.21 | inactive
ETS1 (ETS proto-oncogene 1, transcription factor) | 1 | 0.71 | inactive
ETS1 (ETS proto-oncogene 1, transcription factor) | 1 | -0.03 | inactive
ETS1 (ETS proto-oncogene 1, transcription factor) | 1 | 2.07 | inactive
PRH2 (proline rich protein HaeIII subfamily 2) | 1 | -0.42 | inactive
PRH2 (proline rich protein HaeIII subfamily 2) | 1 | -0.4 | inactive
PRH2 (proline rich protein HaeIII subfamily 2) | 1 | -0.7 | inactive
PRH2 (proline rich protein HaeIII subfamily 2) | 1 | -0.74 | inactive
PARP14 (poly(ADP-ribose) polymerase family member 14) | 1 | -0.75 | inactive
PARP14 (poly(ADP-ribose) polymerase family member 14) | 1 | -0.36 | inactive
PARP14 (poly(ADP-ribose) polymerase family member 14) | 1 | -1.09 | inactive
PARP14 (poly(ADP-ribose) polymerase family member 14) | 1 | -1.32 | inactive
ADAP1 (ArfGAP with dual PH domains 1) | 1 | 0.41 | inactive
ADAP1 (ArfGAP with dual PH domains 1) | 1 | 1.73 | inactive
ADAP1 (ArfGAP with dual PH domains 1) | 1 | 0.81 | inactive
ADAP1 (ArfGAP with dual PH domains 1) | 1 | 1.51 | inactive
MADD (MAP kinase activating death domain) | 1 | -1.09 | inactive
MADD (MAP kinase activating death domain) | 1 | -1.43 | inactive
MADD (MAP kinase activating death domain) | 1 | -1.62 | active
MADD (MAP kinase activating death domain) | 1 | 0.22 | inactive
AK9 (adenylate kinase 9) | 1 | -0.06 | inactive
AK9 (adenylate kinase 9) | 1 | 0.54 | inactive
AK9 (adenylate kinase 9) | 1 | 0.81 | inactive
AK9 (adenylate kinase 9) | 2 | 0.25 | inactive
AK9 (adenylate kinase 9) | 2 | 1.78 | inactive
AK9 (adenylate kinase 9) | 2 | -0.49 | inactive
AK9 (adenylate kinase 9) | 2 | -1.15 | inactive
AK9 (adenylate kinase 9) | 3 | 0.4 | inactive
AK9 (adenylate kinase 9) | 3 | 0.43 | inactive
AK9 (adenylate kinase 9) | 3 | 0.39 | inactive
AK9 (adenylate kinase 9) | 3 | 0.38 | inactive

Hits, among the entries above:
gene | pool no. | TNF reporter robust z-score | activity call
RAX2 (retina and anterior neural fold homeobox 2) | 1 | 2.83 | active
MADD (MAP kinase activating death domain) | 1 | -1.62 | active
